Data from patent publication US20100285540A1, “Process for the preparation of (R)-Beta-Arylalanines by coupled Racemase/Aminomutase catalysis” (Board of Trustees of Michigan State University, priority 2009, published 2010).
At least one structure is not confirmed: it was looked up by name or label, or the drawing left a doubt.

Molecular target: T1, phenylalanine aminomutase (PAM) (Taxus canadensis, UniProt Q6GZ04)
T1 sequence (Q6GZ04 1-698): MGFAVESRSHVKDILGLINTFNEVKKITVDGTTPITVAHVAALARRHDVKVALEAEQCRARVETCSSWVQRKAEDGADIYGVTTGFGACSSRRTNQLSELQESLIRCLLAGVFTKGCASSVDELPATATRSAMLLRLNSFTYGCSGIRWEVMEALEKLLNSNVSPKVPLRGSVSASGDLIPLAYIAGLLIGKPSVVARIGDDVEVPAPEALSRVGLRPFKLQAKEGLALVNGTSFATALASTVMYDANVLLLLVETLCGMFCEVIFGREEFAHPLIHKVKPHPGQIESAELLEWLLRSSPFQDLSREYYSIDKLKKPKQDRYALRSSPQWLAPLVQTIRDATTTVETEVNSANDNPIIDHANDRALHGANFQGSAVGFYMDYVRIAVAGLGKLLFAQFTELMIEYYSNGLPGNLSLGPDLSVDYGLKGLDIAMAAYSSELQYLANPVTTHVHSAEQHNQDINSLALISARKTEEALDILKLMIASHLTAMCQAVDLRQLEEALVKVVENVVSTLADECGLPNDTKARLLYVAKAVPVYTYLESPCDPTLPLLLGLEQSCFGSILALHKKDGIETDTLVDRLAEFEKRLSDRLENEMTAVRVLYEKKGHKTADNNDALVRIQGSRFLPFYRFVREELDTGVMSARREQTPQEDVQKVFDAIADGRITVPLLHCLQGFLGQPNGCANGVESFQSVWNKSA

N[C@H](Cc1ccccc1)C(=O)O [(R)-α-Phenylalanine, (R)-α-phenylalanine]
Ki: 400 µM
